Sequences and labels used below:
B1: TSC22D4 (protein, UniProt Q9Y3Q8 1-395)
chain: MSGGKKKSSFQITSVTTDYEGPGSPGASDPPTPQPPTGPPPRLPNGEPSPDPGGKGTPRNGSPPPGAPSSRFRVVKLPHGLGEPYRRGRWTCVDVYERDLEPHSFGGLLEGIRGASGGAGGRSLDSRLELASLGLGAPTPPSGLSQGPTSWLRPPPTSPGPQARSFTGGLGQLVVPSKAKAEKPPLSASSPQQRPPEPETGESAGTSRAATPLPSLRVEAEAGGSGARTPPLSRRKAVDMRLRMELGAPEEMGQVPPLDSRPSSPALYFTHDASLVHKSPDPFGAVAAQKFSLAHSMLAISGHLDSDDDSGSGSLVGIDNKIEQAMDLVKSHLMFAVREEVEVLKEQIRELAERNAALEQENGLLRALASPEQLAQLPSSGVPRLGPPAPNGPSV
B2: Peroxiredoxin 1 (protein, UniProt Q06830 1-199)
chain: MSSGNAKIGHPAPNFKATAVMPDGQFKDISLSDYKGKYVVFFFYPLDFTFVCPTEIIAFSDRAEEFKKLNCQVIGASVDSHFCHLAWVNTPKKQGGLGPMNIPLVSDPKRTIAQDYGVLKADEGISFRGLFIIDDKGILRQITVNDLPVGRSVDETLRLVQAFQFTDKHGEVCPAGWKPGSDTIKPDVQKSKEYFSKQK
B3: Thioredoxin-like 1 (TXNL1) (protein, UniProt O43396 1-289)
chain: MVGVKPVGSDPDFQPELSGAGSRLAVVKFTMRGCGPCLRIAPAFSSMSNKYPQAVFLEVDVHQCQGTAATNNISATPTFLFFRNKVRIDQYQGADAVGLEEKIKQHLENDPGSNEDTDIPKGYMDLMPFINKAGCECLNESDEHGFDNCLRKDTTFLESDCDEQLLITVAFNQPVKLYSMKFQGPDNGQGPKYVKIFINLPRSMDFEEAERSEPTQALELTEDDIKEDGIVPLRYVKFQNVNSVTIFVQSNQGEEETTRISYFTFIGTPVQATNMNDFKRVVGKKGESH
B4: TSC22D1 (protein, UniProt Q15714 1-1073)
chain: MHQPPESTAAAAAAADISARKMAHPAMFPRRGSGSGSASALNAAGTGVGSNATSSEDFPPPSLLQPPPPAASSTSGPQPPPPQSLNLLSQAQLQAQPLAPGGTQMKKKSGFQITSVTPAQISASISSNNSIAEDTESYDDLDESHTEDLSSSEILDVSLSRATDLGEPERSSSEETLNNFQEAETPGAVSPNQPHLPQPHLPHLPQQNVVINGNAHPHHLHHHHQIHHGHHLQHGHHHPSHVAVASASITGGPPSSPVSRKLSTTGSSDSITPVAPTSAVSSSGSPASVMTNMRAPSTTGGIGINSVTGTSTVNNVNITAVGSFNPNVTSSMLGNVNISTSNIPSAAGVSVGPGVTSGVNVNILSGMGNGTISSSAAVSSVPNAAAGMTGGSVSSQQQQPTVNTSRFRVVKLDSSSEPFKKGRWTCTEFYEKENAVPATEGVLINKVVETVKQNPIEVTSERESTSGSSVSSSVSTLSHYTESVGSGEMGAPTVVVQQQQQQQQQQQQQPALQGVTLQQMDFGSTGPQSIPAVSIPQSISQSQISQVQLQSQELSYQQKQGLQPVPLQATMSAATGIQPSPVNVVGVTSALGQQPSISSLAQPQLPYSQAAPPVQTPLPGAPPPQQLQYGQQQPMVSTQMAPGHVKSVTQNPASEYVQQQPILQTAMSSGQPSSAGVGAGTTVIPVAQPQGIQLPVQPTAVPAQPAGASVQPVGQAPAAVSAVPTGSQIANIGQQANIPTAVQQPSTQVPPSVIQQGAPPSSQVVPPAQTGIIHQGVQTSAPSLPQQLVIASQSSLLTVPPQPQGVEPVAQGIVSQQLPAVSSLPSASSISVTSQVSSTGPSGMPSAPTNLVPPQNIAQTPATQNGNLVQSVSQPPLIATNTNLPLAQQIPLSSTQFSAQSLAQAIGSQIEDARRAAEPSLVGLPQTISGDSGGMSAVSDGSSSSLAASASLFPLKVLPLTTPLVDGEDESSSGASVVAIDNKIEQAMDLVKSHLMYAVREEVEVLKEQIKELIEKNSQLEQENNLLKTLASPEQLAQFQAQLQTGSPPATTQPQGTTQPPAQPASQGSGPTA
B5: Peroxiredoxin 3 (protein, UniProt P30048 62-256)
chain: APAVTQHAPYFKGTAVVNGEFKDLSLDDFKGKYLVLFFYPLDFTFVCPTEIVAFSDKANEFHDVNCEVVAVSVDSHFSHLAWINTPRKNGGLGHMNIALLSDLTKQISRDYGVLLEGSGLALRGLFIIDPNGVIKHLSVNDLPVGRSVEETLRLVKAFQYVETHGEVCPANWTPDSPTIKPSPAASKEYFQKVNQ
B6: Peroxiredoxin 2 (protein, UniProt P32119 1-198)
chain: MASGNARIGKPAPDFKATAVVDGAFKEVKLSDYKGKYVVLFFYPLDFTFVCPTEIIAFSNRAEDFRKLGCEVLGVSVDSQFTHLAWINTPRKEGGLGPLNIPLLADVTRRLSEDYGVLKTDEGIAYRGLFIIDGKGVLRQITVNDLPVGRSVDEALRLVQAFQYTDEHGEVCPAGWKPGSDTIKPNVDDSKEYFSKHN

Amino acid sequences for entries named in this document (tags omitted).
UniProt Q9UHY1: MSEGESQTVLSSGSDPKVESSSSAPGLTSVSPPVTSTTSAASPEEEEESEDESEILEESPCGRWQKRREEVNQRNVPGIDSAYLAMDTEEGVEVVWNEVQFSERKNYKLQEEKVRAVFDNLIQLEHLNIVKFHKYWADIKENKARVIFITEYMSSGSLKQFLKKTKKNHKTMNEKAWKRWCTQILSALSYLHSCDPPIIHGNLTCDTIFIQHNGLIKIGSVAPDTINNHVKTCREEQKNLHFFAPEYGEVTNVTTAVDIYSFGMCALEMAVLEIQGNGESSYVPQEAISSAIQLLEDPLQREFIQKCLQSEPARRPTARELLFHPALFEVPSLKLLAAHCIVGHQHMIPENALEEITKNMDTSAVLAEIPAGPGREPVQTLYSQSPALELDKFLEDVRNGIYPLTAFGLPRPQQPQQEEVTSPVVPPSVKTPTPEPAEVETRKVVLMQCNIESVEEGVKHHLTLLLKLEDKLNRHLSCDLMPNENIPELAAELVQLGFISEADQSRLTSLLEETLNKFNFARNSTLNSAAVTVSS
UniProt Q15370: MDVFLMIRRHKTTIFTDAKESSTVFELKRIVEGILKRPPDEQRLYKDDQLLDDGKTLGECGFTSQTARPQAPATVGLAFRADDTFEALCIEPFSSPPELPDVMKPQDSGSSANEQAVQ
UniProt Q8TCU6: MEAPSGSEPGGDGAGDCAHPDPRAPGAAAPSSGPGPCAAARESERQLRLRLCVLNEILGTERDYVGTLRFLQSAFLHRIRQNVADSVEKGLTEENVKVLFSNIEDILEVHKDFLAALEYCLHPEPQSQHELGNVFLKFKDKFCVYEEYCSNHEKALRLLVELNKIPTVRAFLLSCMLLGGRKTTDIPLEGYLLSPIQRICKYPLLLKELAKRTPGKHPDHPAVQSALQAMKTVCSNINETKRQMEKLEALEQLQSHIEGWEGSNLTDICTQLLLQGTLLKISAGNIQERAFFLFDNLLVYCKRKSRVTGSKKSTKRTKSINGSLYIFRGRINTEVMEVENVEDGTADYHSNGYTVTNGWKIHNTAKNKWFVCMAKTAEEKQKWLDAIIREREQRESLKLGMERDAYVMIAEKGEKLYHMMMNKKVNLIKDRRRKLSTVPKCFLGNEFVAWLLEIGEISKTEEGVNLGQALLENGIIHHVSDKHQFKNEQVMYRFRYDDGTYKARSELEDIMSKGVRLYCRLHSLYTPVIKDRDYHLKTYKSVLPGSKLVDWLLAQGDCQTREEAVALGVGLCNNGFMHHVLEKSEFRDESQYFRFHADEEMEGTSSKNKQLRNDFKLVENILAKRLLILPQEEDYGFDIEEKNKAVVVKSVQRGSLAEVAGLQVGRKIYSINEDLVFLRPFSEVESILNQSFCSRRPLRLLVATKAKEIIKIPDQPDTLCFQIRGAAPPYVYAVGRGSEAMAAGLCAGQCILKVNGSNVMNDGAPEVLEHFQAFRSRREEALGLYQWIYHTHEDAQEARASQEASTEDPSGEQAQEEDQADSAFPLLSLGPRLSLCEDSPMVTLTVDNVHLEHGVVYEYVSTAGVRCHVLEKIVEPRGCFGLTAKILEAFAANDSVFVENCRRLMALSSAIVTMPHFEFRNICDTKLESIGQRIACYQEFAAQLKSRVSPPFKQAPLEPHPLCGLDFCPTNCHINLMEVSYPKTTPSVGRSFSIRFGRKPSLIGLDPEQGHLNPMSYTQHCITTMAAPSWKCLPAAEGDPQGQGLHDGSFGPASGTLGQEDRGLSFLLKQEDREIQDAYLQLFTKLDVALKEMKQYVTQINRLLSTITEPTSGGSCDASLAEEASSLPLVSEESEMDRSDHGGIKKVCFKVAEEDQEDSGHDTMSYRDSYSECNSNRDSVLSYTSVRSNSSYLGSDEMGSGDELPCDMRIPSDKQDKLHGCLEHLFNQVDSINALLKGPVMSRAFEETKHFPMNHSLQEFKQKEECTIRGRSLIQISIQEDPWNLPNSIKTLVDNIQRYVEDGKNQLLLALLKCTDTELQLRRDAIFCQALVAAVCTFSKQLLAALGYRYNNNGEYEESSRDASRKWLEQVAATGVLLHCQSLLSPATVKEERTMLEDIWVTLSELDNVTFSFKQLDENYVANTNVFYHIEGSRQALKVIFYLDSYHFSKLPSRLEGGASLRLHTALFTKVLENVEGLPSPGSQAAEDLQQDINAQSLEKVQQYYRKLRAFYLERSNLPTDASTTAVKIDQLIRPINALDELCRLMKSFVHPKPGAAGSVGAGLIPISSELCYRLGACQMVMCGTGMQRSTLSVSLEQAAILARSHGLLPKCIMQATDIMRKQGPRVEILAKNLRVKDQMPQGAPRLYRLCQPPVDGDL

Results are given in words; binding and its absence hold for the method and conditions named. In cells and extracts the contact can be indirect. A yes stands for co-enrichment or nearness to the bait. Other partners may have been found.

This assay deals with mycBioID2-NRBP1 (UniProt Q9UHY1). The experiment in a line: proximity labelling; BioID-MS: mycBioID2-NRBP1 stably expressed in MDA-MB-231_EcoR cells, 50 µM biotin for 20 h at 37 °C, modified RIPA lysate, streptavidin agarose beads at 4 °C for 22 h, MS; compared with the vector control, n = 3.
In the case of “TCEB2 (Elongin C) (from UniProt Q15370 1-118)”, the binding entry is “binds”.
For P-Rex1 (from UniProt Q8TCU6 1-1659), the binding result was “binds”.
The same measure for B1: “binds”; for B2: “binds”; for B3: “binds”.
For the molecule B4, the binding entry was “binds”.
With B5, the binding entry is reported as “binds”.
For B6, the binding entry is “binds”.

The values above are taken from paper PMC10005955.
